# Reference: PubChem BioAssay AID504467 (National Center for Advancing Translational Sciences (NCATS), 2011)
# In all, about 330,000 compounds went through this assay and about 7,700 (2.3%) were called active. The inconclusive results got no clear call from the source; some entries with a clear call stand among them for comparison. Calls come from the whole dose curve; as a rule, active = well fitted inhibition curve with a large enough effect; inconclusive = small, poorly fitted or top-dose-only effect, or effect the other way; inactive = flat fitted curve, though single readings scatter. A potency beside an inconclusive call is a rough fit, not a confirmed value.
# Experiment: qHTS screen for small molecules that inhibit ELG1-dependent DNA repair in human embryonic kidney (HEK293T) cells expressing luciferase-tagged ELG1; note: nearly all actives have a fitted effect of over 55% in size
# Conditions: HEK293T ELG1-luciferase reporter, luminescence, 16 h, DNA damage induced by 5-fluorouridine; series mostly up to 46.1 µM
# Method in brief: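 Step one: seed 2,000 cells per well. Step two: pin-transfer compound or DMSO alongside 5-fluorouridine. Step three: incubate 16 hr, 37 °C, 5% CO2. Step four: add ONE-Glo, wait 30 min, read luminescence.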
# Potency is the fitted concentration of half-maximal effect.
row,Compound,Potency
1,COc1ccc(Cn2c(CCC(=O)Nc3ccc(C)cc3)nc3cccnc32)cc1,"inconclusive: 23.1 µM [inhibitor, partial curve]"
2,CC1CCN(C(=O)CSc2nnc3ccccn23)CC1,"inconclusive: 16.4 µM [activator, partial curve]"
3,COc1ccccc1C(=O)NCCC(=O)N1CCN(c2ccccc2Cl)CC1,"inconclusive: 8.2 µM [inhibitor, single point]"
4,O=C(O)CCCCCN1C(=O)C(O)=C(C(=O)/C=C/c2ccccc2)C1c1ccc2c(c1)OCO2 (configuration not stated),inactive
5,COc1ccc(C2=NN(C(=O)c3ccccc3)C(c3ccc(OC)c(OC)c3)C2)c(OC(C)=O)c1 (configuration not stated),"inconclusive: 20.6 µM [inhibitor, single point]"
6,CCN1C(=O)[C@H]2[C@@H](c3ccc(C)cc3)N3C(=O)N(c4ccc(OC)cc4)C(=O)[C@@]3(CC)[C@H]2C1=O,"inconclusive: 31.6 µM [activator, single point]"
7,COC(=O)c1ccc2c(=O)[nH]c(CCl)nc2c1,inactive
8,Cc1ccc(C2=NS(=O)(=O)N(C)C(C(=O)NC3CCCCC3)=C2)cc1,inactive
9,COc1ccc(Nc2ncnc3sccc23)c(OC)c1,"inconclusive: 16.4 µM [activator, single point]"
10,O=C(c1ccccc1)c1ccc(O)cc1O,"inconclusive: 29.1 µM [activator, partial curve, poor fit]"
11,COc1ccccc1/C=C/C=N/N1CCN(Cc2ccc(Cl)cc2)CC1,inactive
12,COc1ccc2cc3cc(C(=O)N4CC(C)CC(C)C4)oc3nc2c1 (configuration not stated),"inconclusive: 16.4 µM [activator, partial curve, poor fit]"
13,O=S1(=O)CCOCCCN1Cc1ccccc1Br,inactive
14,Cc1cc(C(=O)Cn2nnc3ccccc3c2=O)c(C)n1-c1ccccc1F,"inconclusive: 0.517 µM [activator, full curve]"
15,CC(=O)Nc1ccc(NC(=O)[C@@H](NC(=O)c2cccc(C)c2)C(C)C)cc1,"inconclusive: 16.4 µM [activator, partial curve, poor fit]"
16,Cc1ccc2c(c1)nnn2C1CCN(CC(=O)N2CCN(c3ccc(F)cc3)CC2)CC1,"inconclusive: 29.1 µM [inhibitor, single point]"
17,O=C1CN(C(=O)COc2c(F)c(F)cc(F)c2F)c2ccccc2N1,inactive
18,Cc1ccc2nc(N3CCN(S(=O)(=O)c4ccc(C)c(Cl)c4)CC3)c(C#N)cc2c1,"inconclusive: 29.1 µM [inhibitor, single point]"
19,O=C(CSc1n[nH]c(-c2ccccc2)n1)c1ccccc1,"inconclusive: 16.4 µM [activator, partial curve]"
20,Cn1cccc1-c1cc(C(=O)N2CCc3c([nH]c4ccccc34)C2c2ccccn2)[nH]n1 (configuration not stated),"inconclusive: 16.4 µM [inhibitor, single point]"
21,O=C(Nc1ccc(F)cc1)NC1(C(=O)NCc2cccs2)CCCCC1,"inconclusive: 23.1 µM [activator, partial curve, poor fit]"
22,CCn1c(SCC(=O)NCCc2ccccc2)nc2c([nH]c3ccccc32)c1=O,"inconclusive: 29.1 µM [activator, single point]"
23,O=C(NNC(=O)c1cccc(O)c1)Nc1ccc([N+](=O)[O-])cc1,inactive

row,Compound,Potency
1,COc1cc(C(=O)Nc2ccc3c(c2)OCCO3)ccc1OC(F)F,"inconclusive: 5.01 µM [activator, single point]"
2,COc1cc(/C=N/Nc2nncn2/N=C/c2ccc(O)c(OC)c2)ccc1O,"inconclusive: 4.61 µM [activator, full curve]"
3,CC(=O)Nc1ccc2c(c1)OCCOCCOc1cc(NC(C)=O)ccc1OCCO2,inactive
4,O=C(Nc1ccc(Cl)cc1)c1csc(-c2ccccc2)n1,"inconclusive: 23.1 µM [inhibitor, partial curve, poor fit]"
5,CC(CNC(=O)CN1C(=O)NC2(CCOc3ccccc32)C1=O)c1ccccc1 (configuration not stated),inactive
6,CCOc1ccc(S(=O)(=O)n2ccnc2C)cc1,inactive
7,CCC(C)NC(=O)C1CCC(CNS(=O)(=O)c2ccc3c(c2)CC(C)N3C(C)=O)CC1 (configuration not stated),inactive
8,Cc1ccc(-c2csc(NC(=O)C3CSC4(C)CCC(=O)N34)n2)cc1 (configuration not stated),"inconclusive: 32.6 µM [activator, partial curve, poor fit]"
9,Cc1cc(C)n2cc(-c3ccc(Cl)cc3)c(C(=O)O)c2n1,"inconclusive: 5.17 µM [activator, partial curve]"
10,CN(C)c1cc(N/N=C/c2ccccc2C(F)(F)F)nc(N(C)C)n1,active: 16.4 µM
11,CCOC(=O)C1(CCCc2ccccc2)CCN(C(=O)c2ocnc2C)CC1,"inconclusive: 20.6 µM [inhibitor, partial curve, poor fit]"
12,Cn1cnc2c1c(=O)n(Cc1ccccc1)c(=O)n2C,inactive
13,Nc1c(C(=O)N2CCOCC2)oc2ccccc12,"inconclusive: 13 µM [activator, partial curve]"
14,COc1ccccc1C1(O)CCN(CC(=O)Nc2nc(-c3ccccc3)cs2)CC1,"inconclusive: 29.1 µM [inhibitor, single point]"
15,CCC(Sc1nc2ccncc2[nH]1)C(=O)Nc1cc(Cl)ccc1C (configuration not stated),inactive
16,Cc1ccccc1Nc1cc(C)c2c(O)cccc2n1,inactive
17,Cc1occc1C(=O)N/N=C/C(Br)=C\c1ccccc1,"inconclusive: 3.26 µM [activator, full curve]"
18,Cc1nn(Cc2ccccc2)c(=O)c2nn(-c3ccc(Cl)cc3)c(C)c12,"inconclusive: 23.1 µM [inhibitor, partial curve, poor fit]"
19,C/C(=N\O)c1ccc2[nH]ccc2c1,"inconclusive: 20.6 µM [activator, single point]"
20,CSc1nc2ccc(NC(=O)CSc3nnc(N)s3)cc2s1,"inconclusive: 18.4 µM [activator, partial curve]"
21,Cc1cccc(CN2CCN(C(=O)CN(C)C(C)C(=O)Nc3ccc(C(N)=O)cc3)CC2)c1 (configuration not stated),inactive
22,CC(C)[C@H](N)C(=O)NC[C@H]1O[C@@H](n2cnc3c(N)ncnc32)[C@H](O)[C@@H]1O,inactive
23,COc1cc(C(=O)OCC(=O)c2ccc(S(=O)(=O)N3CCCCC3)cc2)cc(OC)c1OC,"inconclusive: 35.5 µM [inhibitor, single point]"

row,Compound,Potency
1,COc1cc(OC)c2c(-c3cccc(-c4ccc(N(C)C)cc4)c3)cc(=O)oc2c1,"inconclusive: 23.1 µM [activator, single point]"
2,CCN(c1ccccc1)S(=O)(=O)c1ccc(OC)c(NC(=O)C2CCC2)c1,inactive
3,CCn1c(-c2ccc(N)cc2)nc2ccccc21,"inconclusive: 18.4 µM [activator, partial curve, poor fit]"
4,Cc1ccc(C2=NCCn3c2c2ccc(C(F)(F)F)cc2[n+]3[O-])cc1,"inconclusive: 22.4 µM [activator, single point]"
5,COc1cc(C(=O)NCCOc2ccccc2C)cc(OC)c1OC,"inconclusive: 25.9 µM [inhibitor, partial curve, poor fit]"
6,Cc1cccc(-n2nnc(C(=O)NC3CCCc4ccccc43)c2N)c1 (configuration not stated),"inconclusive: 14.6 µM [inhibitor, partial curve, poor fit]"
7,Cc1cc(C(=O)CSc2ccc(F)cc2)cc(C)c1O,"inconclusive: 23.1 µM [activator, single point]"
8,Cc1ccc(S(=O)(=O)N[C@@H](C)C(=O)N2CCC(C(=O)N[C@@H](Cc3ccccc3)C(=O)O)CC2)cc1,"inconclusive: 13 µM [activator, partial curve, poor fit]"
9,Nc1ccc(Nc2ccncc2[N+](=O)[O-])cc1,"inconclusive: 20.6 µM [inhibitor, partial curve, poor fit]"
10,CCOC(=O)N1CCN(C(=O)c2ccc3c(=O)n(-c4ccc(OC)cc4OC)c(=S)[nH]c3c2)CC1,inactive
11,CC(C)c1ccc(/C=N/NC(=O)CC(=O)NCc2ccccc2)cc1,inactive
12,Cc1cc(C)c(S(=O)(=O)Nc2cnc3ccccc3c2)c(C)c1,"inconclusive: 23.1 µM [inhibitor, single point]"
13,COc1cc(/C=N/NC(=O)COc2ccc(Cl)cc2)ccc1OS(=O)(=O)c1ccc(C)cc1,"inconclusive: 18.4 µM [inhibitor, single point]"
14,COc1ccc(-c2cc3ccc(OC(C)C(=O)O)cc3oc2=O)cc1 (configuration not stated),"inconclusive: 20.6 µM [activator, partial curve]"
15,CCOc1cc(/C=C2\SC(=S)N(Nc3ccccc3)C2=O)ccc1O,"inconclusive: 23.1 µM [activator, partial curve, poor fit]"
16,Cc1ccc(S(=O)(=O)Nc2ccc(Cl)cc2)cc1NC(=O)c1cc2c(s1)CCCC2,"inconclusive: 23.1 µM [inhibitor, single point]"
17,Cc1ccc2[nH]c(=O)c(CNS(=O)(=O)c3ccccc3)c(-c3ccccc3)c2c1,"inconclusive: 20.6 µM [inhibitor, single point]"
18,c1ccc(SCc2nc(-c3ccncc3)no2)cc1,"inconclusive: 18.4 µM [activator, partial curve, poor fit]"
19,N#CC1=C(N)SC(N)=C(C#N)C1c1c(Cl)cccc1Cl,"inconclusive: 20.6 µM [activator, single point]"
20,CN(C)/C=N/S(=O)(=O)c1ccc(Cl)c(Cl)c1,inactive
21,Nc1nnnn1/N=C/C=C/c1ccccc1,"inconclusive: 15.8 µM [activator, single point]"

# In a second layout: entries from further up
row	Compound	Potency
3	CCn1c(-c2ccc(N)cc2)nc2ccccc21	inconclusive: 18.4 µM [activator, partial curve, poor fit]
4	Cc1ccc(C2=NCCn3c2c2ccc(C(F)(F)F)cc2[n+]3[O-])cc1	inconclusive: 22.4 µM [activator, single point]

# Gathered by group: the compounds so far with a nitro group on carbon (2)
row,Compound,Potency
23,O=C(NNC(=O)c1cccc(O)c1)Nc1ccc([N+](=O)[O-])cc1,inactive
9,Nc1ccc(Nc2ccncc2[N+](=O)[O-])cc1,"inconclusive: 20.6 µM [inhibitor, partial curve, poor fit]"
